In patent publication US20250011460A1 one finds binding data, which are given here for 3 molecules.

No constants are given. Whether binding was seen depends on the method and setting. Some entries that bind do so weakly or less than the wild type. For some of these results: Where a sequence is shown, tags or fusion partners need not be part of it.

Assay [1] deals with T1, recombinant Sp17 protein (human) (UniProt Q15506).
T1 sequence (looked up): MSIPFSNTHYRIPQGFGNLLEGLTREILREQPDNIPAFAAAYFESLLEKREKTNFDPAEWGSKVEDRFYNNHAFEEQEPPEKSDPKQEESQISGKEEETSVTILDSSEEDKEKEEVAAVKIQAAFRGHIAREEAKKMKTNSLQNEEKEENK
The assay can be described thus: western blot of Sp17 protein.

Assay [2] concerns the target T1, recombinant Sp17 protein (human). The assay can be described thus: western blot of recombinant Sp17 protein.
The target is the same in assay [3]. In words: western blot of Sp17 protein on SDS-PAGE, detected with chAB2. A general note: Immunoblotting shows a protein as a band on a membrane.
The target of assay [4] is T2, recombinant 6His-Sp17 protein (human) (UniProt Q15506).
T2 sequence (looked up): T1 sequence (looked up)
The assay can be described thus: surface plasmon resonance (Biacore T200), 6His-Sp17 at 6.25 to 300 nM over chAB2. Background: Surface plasmon resonance follows binding to a sensor surface in real time, without labels.

The target of assay [5] is T1, recombinant Sp17 protein (human). The assay can be described thus: ELISA of Fab phage display clones.
For assay [6] the target is unchanged. In words: western blot.
The target is the same in assay [7]. In words: western blot of Sp17 protein and a tumor cell lysate.

B1: mouse-human chimeric anti-Sp17 IgG2a/kappa monoclonal antibody chAB2 (antibody, V domains shown, not shown: a dimerising Fc or GST)
VH: QVQLQQSGAEVKKPGSSVKVSCKASGGTFSSYAISWVRQAPGQGLEWMGRIIPILGIANYAQKFQGRVTITADKSTSTAYMELSSLRSEDTAVYYCARPSEEVVAAYGAFDIWGQGTTVTVSS
VL: EIVLTQSPLSLPVRPGEPASISCRASQSLLRSDGFNYLDWYLQKPGQSPQLLVYLGSNRASGVPDRFSGSGSGTDFTLKISRVEAEDVGVYYCMQAVQTPYIFGQGTKLEIK
Take B1: the binding result in assay [1], in assay [2], in assay [3] and in assay [4] was “binds” throughout.

B2: anti-Sp17 Fab (best-performing clone from the Fab phage display library) (Fab, V domains shown)
VH: B1 VH
VL: B1 VL
Regarding B2, the binding result in assay [5] is on record as “binds”.

B3: human anti-Sp17 IgG4/kappa monoclonal antibody SP17-AB2 (antibody, V domains shown)
VH: B1 VH
VL: EIVLTQSPLSLPVRPGEPASISCRASQSLLRSDGFNYLDWYLQKPGQSPQLLVYLGSNRASGVPDRFSGSGSGTDFTLKISRVEAEDVGVYYCMQAVQTPYIFGQGTKLEIKR
For B3, the binding entry in assay [6] and in assay [7] was “binds” in each case.
